Data as given in article PMC8805577.
No constants are given. Whether binding was seen depends on the method and setting. In cells and extracts the contact can be indirect. Some results given as binding are weak or reduced against the parent protein; the word gives no strength. Sequences can lack the tags named with a protein. Values belong to the molecule of their own block, whether it stands above or below them.

Amino acid sequences for entries named in this document (tags omitted). A change or cut given only in a name is not applied to a line headed by its entry.
UniProt P15976: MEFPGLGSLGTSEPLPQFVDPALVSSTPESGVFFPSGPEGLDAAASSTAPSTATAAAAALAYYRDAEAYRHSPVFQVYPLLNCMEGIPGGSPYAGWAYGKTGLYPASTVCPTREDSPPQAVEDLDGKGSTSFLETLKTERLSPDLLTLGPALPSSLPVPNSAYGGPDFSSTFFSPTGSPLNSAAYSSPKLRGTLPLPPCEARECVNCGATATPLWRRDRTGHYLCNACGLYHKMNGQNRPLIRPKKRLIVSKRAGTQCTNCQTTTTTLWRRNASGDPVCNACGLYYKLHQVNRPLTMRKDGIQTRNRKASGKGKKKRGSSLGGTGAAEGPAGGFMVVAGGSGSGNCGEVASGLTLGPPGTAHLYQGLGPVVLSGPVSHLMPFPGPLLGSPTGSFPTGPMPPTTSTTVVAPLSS

Columns and labels:
[1] = molecular target: T1, FLAG-SREBP2 (292-468 aa), truncated FLAG-nSREBP2 (human) (UniProt Q12772); experiment: co-IP; truncated GATA1 with FLAG-nSREBP2 (1-468aa), and truncated FLAG-nSREBP2 with GATA1; cells not stated for these panels
T1 sequence: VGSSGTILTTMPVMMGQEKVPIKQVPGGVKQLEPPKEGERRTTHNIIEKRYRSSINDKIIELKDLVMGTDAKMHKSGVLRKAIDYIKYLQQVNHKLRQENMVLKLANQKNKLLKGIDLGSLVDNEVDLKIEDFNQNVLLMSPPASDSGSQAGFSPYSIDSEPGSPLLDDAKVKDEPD

[2] = molecular target: T2, FLAG-nSREBP2 (1-468aa), active (proteolytically activated) human SREBP2 (human) (UniProt Q12772); experiment: co-IP; reciprocal co-IP of exogenous FLAG-nSREBP2 and GFP-GATA1 in 293T cells; Pierce IP lysis buffer, beads conjugated with antibodies, 4 °C for 12 h, five washes, immunoblot
T2 sequence: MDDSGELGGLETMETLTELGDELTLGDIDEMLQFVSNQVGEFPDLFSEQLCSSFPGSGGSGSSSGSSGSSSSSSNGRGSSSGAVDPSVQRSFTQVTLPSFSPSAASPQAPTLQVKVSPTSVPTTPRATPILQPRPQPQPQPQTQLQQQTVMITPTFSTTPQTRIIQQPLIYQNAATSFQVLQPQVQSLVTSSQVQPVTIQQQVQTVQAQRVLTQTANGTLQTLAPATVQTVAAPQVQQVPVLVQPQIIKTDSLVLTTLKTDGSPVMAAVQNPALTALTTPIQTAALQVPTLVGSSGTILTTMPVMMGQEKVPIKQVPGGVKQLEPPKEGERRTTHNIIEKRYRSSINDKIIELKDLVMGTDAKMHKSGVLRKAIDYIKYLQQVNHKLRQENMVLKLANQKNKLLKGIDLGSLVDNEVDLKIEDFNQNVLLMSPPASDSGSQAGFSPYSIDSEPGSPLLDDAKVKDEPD

[3] = molecular target: T2, FLAG-nSREBP2 (1-468aa), active (proteolytically activated) human SREBP2 (human); experiment: co-IP; truncated GATA1 with FLAG-nSREBP2 (1-468aa), and truncated FLAG-nSREBP2 with GATA1; cells not stated for these panels
[4] = molecular target: GFP-GATA1 full length (FL) (human) (UniProt P15976); experiment: co-IP; reciprocal co-IP of exogenous FLAG-nSREBP2 and GFP-GATA1 in 293T cells; Pierce IP lysis buffer, beads conjugated with antibodies, 4 °C for 12 h, five washes, immunoblot

binding [1]: binds
binding [2]: binds
Molecule: GFP-GATA1 full length (FL) (from UniProt P15976 1-413)

binding [3]: binds
Molecule: GFP-GATA1 ZF (zinc finger domains) (from UniProt P15976 199-318) (domain or fragment)

binding [4]: binds
B1: FLAG-nSREBP2 (1-468aa), active (proteolytically activated) human SREBP2 (domain or fragment, UniProt Q12772 1-468)
chain: T2 sequence
